Patent EP4692108A1, “PEPTIDE WITH ACTIVITY OF PROMOTING HAIR GROWTH OR MITIGATING HAIR LOSS AND USE THEREOF” (Caregen Co., Ltd., priority 2023, dated 2026)
“Also recorded” adds a separate entry of the source. Not every detail of the peptide structures is certain; ends, links or a residue may be inferred. No end group written: not given here.

Tests used:
[1] = tested on: human hair follicle dermal papilla cells (HHFDPC); test: SRB proliferation assay, hair follicle dermal papilla cells; format: cell-based; settings: peptide 10, 50 or 100 µM, 72 hours, maximum observed ('up to about'), FIG. 1
[2] = tested on: human hair follicle outer root sheath cells (HHFORSC); test: SRB proliferation assay, hair follicle outer root sheath cells; format: cell-based; settings: peptide 10, 50 or 100 µM, 72 hours, maximum observed ('up to about'), FIG. 2
[3] = tested on: human hair follicle germinal matrix cells (HHFGMC); test: SRB proliferation assay, hair follicle germinal matrix cells; format: cell-based; settings: peptide 10, 50 or 100 µM, 72 hours, maximum observed ('up to about'), FIG. 3
[4] = tested on: β-catenin; test: Western blot of nucleoproteins for β-catenin in HHFDPC (proliferation mechanism); format: cell-based, human; settings: for translocation of β-catenin from the cytoplasm to the nucleus, promotion: peptides at different concentrations
[5] = tested on: Lef-1; test: RT-PCR of Lef-1 expression in HHFDPC; format: cell-based, human; settings: peptide 10, 50 or 100 µM, 24 hours, maximum observed ('up to'), FIG. 5
[6] = tested on: Cyclin D1; test: RT-PCR of Cyclin D1 expression in HHFDPC; format: cell-based, human; settings: peptide 10, 50 or 100 µM, 24 hours, maximum observed ('up to'), FIG. 5
[7] = tested on: c-Myc; test: RT-PCR of c-Myc expression in HHFDPC; format: cell-based, human; settings: peptide 10, 50 or 100 µM, 24 hours, maximum observed ('up to'), FIG. 5
[8] = tested on: stem cell markers CD34, Lhx-2, and Keratin15; test: RT-PCR of stem cell markers in HHFSC; format: cell-based, human; settings: for expression of stem cell markers CD34, Lhx-2, and Keratin15: peptide 10, 50 or 100 µM, 72 hours, FIG. 6, FIG. 10
[9] = tested on: differentiation markers, alpha-SMA, Corin, Versican, Vimentin, and Nexin-1; test: RT-PCR of differentiation markers in HHFSC; format: cell-based, human; settings: for expression of all differentiation markers, alpha-SMA, Corin, Versican, Vimentin, and Nexin-1: peptide 10, 50 or 100 µM, 72 hours, FIG. 7, FIG. 11
[10] = tested on: DKK-1; test: Western blot of DHT-induced DKK-1 expression in HHFDPC; format: cell-based, human; settings: for inhibitory effect on DKK-1 expression: DHT-induced, peptides at different concentrations

Sequence	increase of proliferation [1]	increase of proliferation [2]	increase of proliferation [3]	expression of β-catenin ([4]; peptide 10, 50 or 100 µM, 24 hours, FIG. 4)	nuclear translocation of β-catenin from the cytoplasm to the nucleus, increase ([4]; peptide 10, 50 or 100 µM, 24 hours, maximum observed ('up to'), FIG. 4)	translocation of β-catenin from the cytoplasm to the nucleus, promotion ([4]; FIG. 9)	proliferation mechanism promoting activity, compared with the known peptide (SEQ ID NO: 26) ([4]; same concentration, FIG. 9)	Lef-1 expression, increase compared to the control group [5]	Cyclin D1 expression, increase compared to the control group [6]	c-Myc expression, increase compared to the control group [7]	expression of stem cell markers CD34, Lhx-2, and Keratin15 [8]	expression of stem cell markers, compared with the known peptide (SEQ ID NO: 26) ([8]; same concentration, FIG. 10)	expression of all differentiation markers, alpha-SMA, Corin, Versican, Vimentin, and Nexin-1 [9]	expression of differentiation markers, compared with the known peptide (SEQ ID NO: 26) ([9]; same concentration, FIG. 11)	inhibitory effect on DKK-1 expression ([10]; FIG. 12)	DKK-1 expression level, reduction compared to the negative control group (DHT treatment group) ([10]; high-concentration peptide treatment group, DHT 100 nM, 24 hours, FIG. 8)	ability to inhibit the expression of DKK-1, compared with the known peptide (SEQ ID NO: 26) ([10]; same concentration, FIG. 12)
RQTRVERSHS [SEQ ID NO: 1, RQTRVERSHS]	about 46%	about 49%	about 33%	increases	up to 5.34 times	in a concentration-dependent manner	significantly higher	up to 1.53 times	up to 6.13 times	up to 4.86 times	clearly reduced; also recorded: significantly reduced	reduced more significantly	significantly increases	significantly increased	in a concentration-dependent manner	about 50%	significantly higher
RQTRVQRSHS [SEQ ID NO: 26, RQTRVQRSHS, reference compound]	–	–	–	–	–	in a concentration-dependent manner	–	–	–	–	significantly reduced	–	significantly increases	–	in a concentration-dependent manner	–	–
